Source: article PMC11267001
Results are given in words; binding and its absence hold for the method and conditions named. Some binding calls cover weakened binding; strength is not graded here.

Assays:
[1] = molecular target: C-terminal truncated DOCK5 (DOCK5^ΔC, residues 1-1642) (human) (UniProt Q9H7D0); assay: cryo-EM structure; DOCK5^ΔC/ELMO1^FL/Rac1^G15A (0.9 μM) mixed with RhoG^Q61L (15 μM), cross-linked with 1 mM BS3, SEC; 20 mM HEPES-NaOH pH 8.0, 300 mM NaCl, 1 mM TCEP, 0.06% digitonin; both purified
[2] = molecular target: human full-length DOCK5 (DOCK5^FL, residues 1-1870) (human) (UniProt Q9H7D0); assay: cryo-EM structure; DOCK5^FL/ELMO1^FL cross-linked with 1 mM BS3 (also a not cross-linked sample at 7.3 Å); 20 mM HEPES-NaOH pH 8.0, 300 mM NaCl, 1 mM TCEP, 0.06% digitonin; both purified

With “human full-length ELMO1 (ELMO1^FL, residues 1-727) (from UniProt Q92556 1-727)” as the substance, how does the binding [1] read?
The binding was “binds”.

What about the binding [2] of the same substance?
Its binding is “binds”.
